Taken from: PubChem BioAssay AID1224831 (NIAID, 2016)
Shown is an unselected part of about 3,500 deposited reagents. 731 of them (21%) count as active. 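Active means either lowered or raised reporter signal; the gene-median score did not drive the per-siRNA calls.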 Reagents against one gene are numbered here.

Purpose: 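Genes that support or restrain LPS-induced TNF-alpha reporter activity in macrophage-like cells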 (follow-up of hits)
Cells: human THP-1 B5 monocytic leukaemia cells carrying a TNF promoter luciferase reporter, made macrophage-like with PMA
Knock-down reagent: single siRNA against human genes, 50 nM
Time to read-out: about 68 h of knock-down, then 4 h LPS
Challenge: LPS (Salmonella minnesota, TLR-grade) at 10 ng/ml for 4 h; PMA 5 ng/ml present during knock-down
Measured: 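Firefly to renilla luciferase ratio of a TNF promoter reporter after 4 h LPS, scaled to plate median, turned into robust z-score, averaged over replicates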
Scale: TNF reporter z-score: higher = stronger LPS-induced TNF reporter signal; z-score, median over gene's siRNAs: higher = stronger TNF reporter signal across the gene's siRNAs
Rule for the call: 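Two-sided call: reduced or raised TNF reporter signal counts as active once mean z reaches about -1 or below, or about 1.5 or above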
Calls: active = changed TNF reporter (either direction); inactive = little change

no.	gene symbol	siRNA no.	TNF reporter z-score, replicate mean	z-score, median over gene's siRNAs	Outcome
1	SUFU (SUFU negative regulator of hedgehog signaling)	1	-0.43	-0.165	inactive
2	SUFU (SUFU negative regulator of hedgehog signaling)	2	0.57	-0.165	inactive
3	SUFU (SUFU negative regulator of hedgehog signaling)	3	0.04	-0.165	inactive
4	SUFU (SUFU negative regulator of hedgehog signaling)	4	-0.37	-0.165	inactive
5	SUFU (SUFU negative regulator of hedgehog signaling)	5	0.77	-0.165	inactive
6	SUFU (SUFU negative regulator of hedgehog signaling)	6	-1.4	-0.165	active
7	CD52 (CD52 molecule)	1	-2.62	1.08	active
8	CD52 (CD52 molecule)	2	0.95	1.08	inactive
9	CD52 (CD52 molecule)	3	1.22	1.08	inactive
10	CD52 (CD52 molecule)	4	1.56	1.08	active
11	CD52 (CD52 molecule)	5	2.41	1.08	active
12	CD52 (CD52 molecule)	6	0.05	1.08	inactive
13	DNAJC25-GNG10 (DNAJC25-GNG10 readthrough)	1	0.09	0.005	inactive
14	DNAJC25-GNG10 (DNAJC25-GNG10 readthrough)	2	0.24	0.005	inactive
15	DNAJC25-GNG10 (DNAJC25-GNG10 readthrough)	3	-0.08	0.005	inactive
16	DNAJC25-GNG10 (DNAJC25-GNG10 readthrough)	4	1.27	0.005	inactive
17	DNAJC25-GNG10 (DNAJC25-GNG10 readthrough)	5	-0.12	0.005	inactive
18	DNAJC25-GNG10 (DNAJC25-GNG10 readthrough)	6	-0.09	0.005	inactive
19	AAMDC (adipogenesis associated Mth938 domain containing)	1	-0.2	0.13	inactive
20	AAMDC (adipogenesis associated Mth938 domain containing)	2	-0.29	0.13	inactive
21	AAMDC (adipogenesis associated Mth938 domain containing)	3	0.46	0.13	inactive
22	AAMDC (adipogenesis associated Mth938 domain containing)	4	-1.89	0.13	active
23	AAMDC (adipogenesis associated Mth938 domain containing)	5	3.78	0.13	active
24	AAMDC (adipogenesis associated Mth938 domain containing)	6	1.56	0.13	active
25	LIN9 (lin-9 DREAM MuvB core complex component)	1	1.95	0.34	active
26	LIN9 (lin-9 DREAM MuvB core complex component)	2	0.03	0.34	inactive
27	LIN9 (lin-9 DREAM MuvB core complex component)	3	-0.02	0.34	inactive
28	LIN9 (lin-9 DREAM MuvB core complex component)	4	1.31	0.34	inactive
29	LIN9 (lin-9 DREAM MuvB core complex component)	5	0.65	0.34	inactive
30	LIN9 (lin-9 DREAM MuvB core complex component)	6	0	0.34	inactive
31	MEGF6 (multiple EGF like domains 6)	1	1.51	0.315	active
32	MEGF6 (multiple EGF like domains 6)	2	0.85	0.315	inactive
33	MEGF6 (multiple EGF like domains 6)	3	-1.29	0.315	active
34	MEGF6 (multiple EGF like domains 6)	4	4.28	0.315	active
35	MEGF6 (multiple EGF like domains 6)	5	-0.22	0.315	inactive
36	MEGF6 (multiple EGF like domains 6)	6	-0.3	0.315	inactive
37	MAD2L2 (mitotic arrest deficient 2 like 2)	1	-0.59	-0.315	inactive
38	MAD2L2 (mitotic arrest deficient 2 like 2)	2	-0.91	-0.315	inactive
39	MAD2L2 (mitotic arrest deficient 2 like 2)	3	0.94	-0.315	inactive
40	MAD2L2 (mitotic arrest deficient 2 like 2)	4	-0.29	-0.315	inactive
41	MAD2L2 (mitotic arrest deficient 2 like 2)	5	-0.29	-0.315	inactive
42	MAD2L2 (mitotic arrest deficient 2 like 2)	6	-0.34	-0.315	inactive
43	DND1 (DND microRNA-mediated repression inhibitor 1)	1	0.3	0.375	inactive
44	DND1 (DND microRNA-mediated repression inhibitor 1)	2	-0.59	0.375	inactive
45	DND1 (DND microRNA-mediated repression inhibitor 1)	3	0.82	0.375	inactive
46	DND1 (DND microRNA-mediated repression inhibitor 1)	4	-0.51	0.375	inactive
47	DND1 (DND microRNA-mediated repression inhibitor 1)	5	4.26	0.375	active
48	DND1 (DND microRNA-mediated repression inhibitor 1)	6	0.45	0.375	inactive
49	ZNF750 (zinc finger protein 750)	1	-1.97	-0.275	active
50	ZNF750 (zinc finger protein 750)	2	-0.31	-0.275	inactive
51	ZNF750 (zinc finger protein 750)	3	-0.96	-0.275	inactive
52	ZNF750 (zinc finger protein 750)	4	0.52	-0.275	inactive
53	ZNF750 (zinc finger protein 750)	5	-0.24	-0.275	inactive
54	ZNF750 (zinc finger protein 750)	6	0.96	-0.275	inactive
55	CCND3 (cyclin D3)	1	0.56	0.52	inactive
56	CCND3 (cyclin D3)	2	0.48	0.52	inactive
57	CCND3 (cyclin D3)	3	-0.26	0.52	inactive
58	CCND3 (cyclin D3)	4	0.15	0.52	inactive
59	CCND3 (cyclin D3)	5	4.43	0.52	active
60	CCND3 (cyclin D3)	6	1.41	0.52	inactive

A portion taken from the entries so far:
no.	gene symbol	siRNA no.	TNF reporter z-score, replicate mean	z-score, median over gene's siRNAs	Outcome
18	DNAJC25-GNG10 (DNAJC25-GNG10 readthrough)	6	-0.09	0.005	inactive
19	AAMDC (adipogenesis associated Mth938 domain containing)	1	-0.2	0.13	inactive
20	AAMDC (adipogenesis associated Mth938 domain containing)	2	-0.29	0.13	inactive
21	AAMDC (adipogenesis associated Mth938 domain containing)	3	0.46	0.13	inactive
